From the supplement of paper PMC10849652
This is one part of the list.

The chains behind the UniProt entries cited, without tags or fusion partners. Where a name states a change or a piece, a line headed by the entry shows the natural chain unless it says otherwise.
UniProt Q8IYI6: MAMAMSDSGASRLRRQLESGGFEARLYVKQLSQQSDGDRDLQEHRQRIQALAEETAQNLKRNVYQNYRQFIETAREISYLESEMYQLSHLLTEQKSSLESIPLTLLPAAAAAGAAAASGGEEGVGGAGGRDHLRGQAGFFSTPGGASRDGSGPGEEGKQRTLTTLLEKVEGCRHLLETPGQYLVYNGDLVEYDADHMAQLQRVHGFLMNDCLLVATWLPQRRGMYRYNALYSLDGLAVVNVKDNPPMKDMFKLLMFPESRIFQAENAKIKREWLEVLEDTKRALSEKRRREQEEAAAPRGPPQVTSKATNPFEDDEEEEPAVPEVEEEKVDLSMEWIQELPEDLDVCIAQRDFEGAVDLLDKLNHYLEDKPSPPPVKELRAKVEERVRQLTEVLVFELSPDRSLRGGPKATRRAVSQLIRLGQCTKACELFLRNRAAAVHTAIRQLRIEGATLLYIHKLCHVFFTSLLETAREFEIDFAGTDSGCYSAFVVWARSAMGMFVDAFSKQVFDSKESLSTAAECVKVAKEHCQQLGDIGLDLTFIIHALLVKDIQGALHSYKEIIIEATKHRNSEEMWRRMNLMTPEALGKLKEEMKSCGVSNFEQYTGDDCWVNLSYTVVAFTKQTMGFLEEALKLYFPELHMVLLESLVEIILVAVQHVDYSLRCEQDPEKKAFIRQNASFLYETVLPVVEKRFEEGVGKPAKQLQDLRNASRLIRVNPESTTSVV
UniProt Q9UF33: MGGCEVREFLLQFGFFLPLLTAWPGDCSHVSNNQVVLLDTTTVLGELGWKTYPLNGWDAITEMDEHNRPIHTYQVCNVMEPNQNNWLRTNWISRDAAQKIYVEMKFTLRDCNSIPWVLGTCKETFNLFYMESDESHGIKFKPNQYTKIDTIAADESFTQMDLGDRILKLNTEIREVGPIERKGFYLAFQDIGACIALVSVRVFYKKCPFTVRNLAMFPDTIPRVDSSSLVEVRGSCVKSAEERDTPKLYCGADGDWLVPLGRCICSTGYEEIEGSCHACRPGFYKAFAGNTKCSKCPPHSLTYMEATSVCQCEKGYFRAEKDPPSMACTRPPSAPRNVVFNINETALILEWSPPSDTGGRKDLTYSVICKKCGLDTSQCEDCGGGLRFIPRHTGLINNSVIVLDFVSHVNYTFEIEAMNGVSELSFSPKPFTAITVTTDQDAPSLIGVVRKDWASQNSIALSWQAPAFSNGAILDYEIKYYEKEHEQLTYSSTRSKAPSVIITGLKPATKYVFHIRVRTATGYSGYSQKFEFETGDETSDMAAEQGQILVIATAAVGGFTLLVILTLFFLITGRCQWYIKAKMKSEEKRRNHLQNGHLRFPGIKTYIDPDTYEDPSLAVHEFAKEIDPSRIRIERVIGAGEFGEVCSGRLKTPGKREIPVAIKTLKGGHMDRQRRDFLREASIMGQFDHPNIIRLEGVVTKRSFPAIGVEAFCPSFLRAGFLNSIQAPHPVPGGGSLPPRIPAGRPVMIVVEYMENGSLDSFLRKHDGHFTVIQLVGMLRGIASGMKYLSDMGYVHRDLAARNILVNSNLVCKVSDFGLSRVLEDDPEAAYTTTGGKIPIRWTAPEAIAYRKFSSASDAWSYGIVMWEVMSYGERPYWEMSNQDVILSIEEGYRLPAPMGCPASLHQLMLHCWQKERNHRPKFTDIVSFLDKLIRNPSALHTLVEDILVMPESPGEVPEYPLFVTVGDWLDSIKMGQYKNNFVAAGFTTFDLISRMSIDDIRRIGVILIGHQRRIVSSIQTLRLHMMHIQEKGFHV
UniProt Q92817: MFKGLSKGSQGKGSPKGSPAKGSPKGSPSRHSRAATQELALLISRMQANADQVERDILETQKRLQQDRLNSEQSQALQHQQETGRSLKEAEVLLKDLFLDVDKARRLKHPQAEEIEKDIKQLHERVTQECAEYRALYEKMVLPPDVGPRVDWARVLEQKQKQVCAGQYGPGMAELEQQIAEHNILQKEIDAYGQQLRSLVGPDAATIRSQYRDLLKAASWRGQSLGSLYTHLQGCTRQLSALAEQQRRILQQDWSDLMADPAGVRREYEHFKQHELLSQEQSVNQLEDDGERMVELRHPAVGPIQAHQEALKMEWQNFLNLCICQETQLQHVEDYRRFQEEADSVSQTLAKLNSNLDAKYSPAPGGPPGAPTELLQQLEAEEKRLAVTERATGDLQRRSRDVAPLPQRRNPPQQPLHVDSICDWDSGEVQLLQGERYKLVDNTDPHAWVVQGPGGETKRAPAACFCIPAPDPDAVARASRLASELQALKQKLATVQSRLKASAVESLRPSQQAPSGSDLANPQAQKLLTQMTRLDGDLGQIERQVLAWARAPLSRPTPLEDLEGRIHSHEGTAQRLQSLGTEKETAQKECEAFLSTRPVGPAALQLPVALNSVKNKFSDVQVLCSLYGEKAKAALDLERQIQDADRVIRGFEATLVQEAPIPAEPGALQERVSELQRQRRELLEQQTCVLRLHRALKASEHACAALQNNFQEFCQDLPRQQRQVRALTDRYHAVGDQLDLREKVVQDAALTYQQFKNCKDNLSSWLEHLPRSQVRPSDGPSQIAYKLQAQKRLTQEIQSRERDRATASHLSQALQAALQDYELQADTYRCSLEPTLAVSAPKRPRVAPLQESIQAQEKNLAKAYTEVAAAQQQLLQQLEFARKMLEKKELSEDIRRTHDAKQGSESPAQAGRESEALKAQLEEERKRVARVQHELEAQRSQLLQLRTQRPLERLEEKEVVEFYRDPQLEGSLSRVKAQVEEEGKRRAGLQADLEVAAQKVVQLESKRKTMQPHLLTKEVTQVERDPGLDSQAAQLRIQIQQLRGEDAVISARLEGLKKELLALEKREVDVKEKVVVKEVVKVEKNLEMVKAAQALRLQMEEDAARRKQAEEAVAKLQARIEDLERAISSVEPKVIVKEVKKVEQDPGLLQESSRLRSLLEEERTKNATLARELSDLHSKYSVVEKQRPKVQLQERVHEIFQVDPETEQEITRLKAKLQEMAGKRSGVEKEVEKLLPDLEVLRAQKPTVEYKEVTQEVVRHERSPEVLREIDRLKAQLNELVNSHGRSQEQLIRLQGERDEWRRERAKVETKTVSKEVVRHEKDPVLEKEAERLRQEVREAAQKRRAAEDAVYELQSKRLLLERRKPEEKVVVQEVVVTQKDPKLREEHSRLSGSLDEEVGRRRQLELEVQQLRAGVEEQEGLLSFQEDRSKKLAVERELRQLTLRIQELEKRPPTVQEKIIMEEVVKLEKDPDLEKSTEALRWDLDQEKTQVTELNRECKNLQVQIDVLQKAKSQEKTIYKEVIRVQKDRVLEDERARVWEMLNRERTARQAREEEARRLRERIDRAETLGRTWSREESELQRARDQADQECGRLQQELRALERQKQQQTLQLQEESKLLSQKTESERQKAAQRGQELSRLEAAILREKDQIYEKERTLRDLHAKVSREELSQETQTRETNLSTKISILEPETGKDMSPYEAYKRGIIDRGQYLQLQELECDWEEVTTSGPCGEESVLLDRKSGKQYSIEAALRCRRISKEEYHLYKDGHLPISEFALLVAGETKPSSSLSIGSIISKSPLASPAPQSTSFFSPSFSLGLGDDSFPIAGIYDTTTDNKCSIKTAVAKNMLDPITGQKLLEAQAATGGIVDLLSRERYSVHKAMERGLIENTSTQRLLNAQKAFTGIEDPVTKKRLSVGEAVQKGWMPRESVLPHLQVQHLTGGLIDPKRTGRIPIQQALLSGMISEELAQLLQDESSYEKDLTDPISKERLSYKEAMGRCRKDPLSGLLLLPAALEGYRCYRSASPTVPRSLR
UniProt Q14674: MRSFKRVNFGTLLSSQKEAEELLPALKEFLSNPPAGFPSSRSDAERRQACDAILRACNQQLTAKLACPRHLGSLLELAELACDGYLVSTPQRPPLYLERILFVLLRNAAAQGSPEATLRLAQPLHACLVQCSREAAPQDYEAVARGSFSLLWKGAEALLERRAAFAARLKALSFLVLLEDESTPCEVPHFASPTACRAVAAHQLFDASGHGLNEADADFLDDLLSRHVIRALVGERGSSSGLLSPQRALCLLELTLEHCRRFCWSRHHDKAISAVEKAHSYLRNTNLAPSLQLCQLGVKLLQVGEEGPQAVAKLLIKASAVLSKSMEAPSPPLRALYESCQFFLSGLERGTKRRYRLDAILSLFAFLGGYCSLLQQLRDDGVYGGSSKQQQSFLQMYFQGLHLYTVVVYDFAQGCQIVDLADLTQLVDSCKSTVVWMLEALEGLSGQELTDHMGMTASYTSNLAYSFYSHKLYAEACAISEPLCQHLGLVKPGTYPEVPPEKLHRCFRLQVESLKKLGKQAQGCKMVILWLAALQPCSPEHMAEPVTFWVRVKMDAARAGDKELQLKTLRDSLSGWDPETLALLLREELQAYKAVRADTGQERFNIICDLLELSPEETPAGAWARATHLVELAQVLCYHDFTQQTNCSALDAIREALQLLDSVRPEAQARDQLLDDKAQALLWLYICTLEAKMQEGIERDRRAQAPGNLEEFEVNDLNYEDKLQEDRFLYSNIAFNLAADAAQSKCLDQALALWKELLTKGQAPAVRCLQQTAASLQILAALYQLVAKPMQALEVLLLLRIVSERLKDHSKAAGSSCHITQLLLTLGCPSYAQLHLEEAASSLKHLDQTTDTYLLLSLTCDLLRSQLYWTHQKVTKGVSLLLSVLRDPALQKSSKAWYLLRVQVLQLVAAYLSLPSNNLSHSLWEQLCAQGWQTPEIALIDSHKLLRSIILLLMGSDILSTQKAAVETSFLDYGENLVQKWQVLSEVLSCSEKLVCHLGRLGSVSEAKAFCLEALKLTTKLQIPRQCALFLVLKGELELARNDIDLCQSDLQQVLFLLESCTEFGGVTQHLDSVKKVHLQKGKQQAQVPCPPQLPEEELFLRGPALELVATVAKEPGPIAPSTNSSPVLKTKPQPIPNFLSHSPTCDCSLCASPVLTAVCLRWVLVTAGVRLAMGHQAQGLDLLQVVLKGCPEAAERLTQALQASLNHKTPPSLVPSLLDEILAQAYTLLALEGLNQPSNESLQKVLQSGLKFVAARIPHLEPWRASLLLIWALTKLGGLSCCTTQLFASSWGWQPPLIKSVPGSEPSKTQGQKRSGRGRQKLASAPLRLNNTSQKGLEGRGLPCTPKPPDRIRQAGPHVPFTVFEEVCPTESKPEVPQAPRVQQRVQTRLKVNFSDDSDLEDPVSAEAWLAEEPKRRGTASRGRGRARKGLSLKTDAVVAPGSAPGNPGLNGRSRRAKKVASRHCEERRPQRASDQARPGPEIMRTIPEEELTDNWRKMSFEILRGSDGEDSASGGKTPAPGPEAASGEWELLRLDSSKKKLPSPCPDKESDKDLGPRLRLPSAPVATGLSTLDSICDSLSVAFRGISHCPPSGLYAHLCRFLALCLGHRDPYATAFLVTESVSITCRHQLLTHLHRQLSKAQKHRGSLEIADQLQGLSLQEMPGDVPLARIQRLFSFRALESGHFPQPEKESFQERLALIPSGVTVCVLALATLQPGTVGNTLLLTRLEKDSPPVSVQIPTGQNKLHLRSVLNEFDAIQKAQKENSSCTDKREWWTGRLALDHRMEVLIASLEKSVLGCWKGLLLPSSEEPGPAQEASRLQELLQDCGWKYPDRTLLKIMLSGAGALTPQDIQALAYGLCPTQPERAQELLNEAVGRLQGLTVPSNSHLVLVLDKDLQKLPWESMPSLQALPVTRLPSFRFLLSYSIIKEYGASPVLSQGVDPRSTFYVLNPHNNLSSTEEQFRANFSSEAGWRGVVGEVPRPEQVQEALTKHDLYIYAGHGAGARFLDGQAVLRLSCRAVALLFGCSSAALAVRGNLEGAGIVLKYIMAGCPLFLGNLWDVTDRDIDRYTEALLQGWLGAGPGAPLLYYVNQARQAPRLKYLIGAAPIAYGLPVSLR
UniProt Q7Z309: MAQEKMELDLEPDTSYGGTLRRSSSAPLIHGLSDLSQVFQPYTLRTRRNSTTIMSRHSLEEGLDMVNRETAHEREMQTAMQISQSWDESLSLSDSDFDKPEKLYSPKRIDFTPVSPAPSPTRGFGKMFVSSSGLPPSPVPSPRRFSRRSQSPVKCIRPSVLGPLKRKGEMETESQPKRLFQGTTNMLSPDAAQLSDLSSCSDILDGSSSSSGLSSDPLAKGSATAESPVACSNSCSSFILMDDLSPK
UniProt Q9Y2C4: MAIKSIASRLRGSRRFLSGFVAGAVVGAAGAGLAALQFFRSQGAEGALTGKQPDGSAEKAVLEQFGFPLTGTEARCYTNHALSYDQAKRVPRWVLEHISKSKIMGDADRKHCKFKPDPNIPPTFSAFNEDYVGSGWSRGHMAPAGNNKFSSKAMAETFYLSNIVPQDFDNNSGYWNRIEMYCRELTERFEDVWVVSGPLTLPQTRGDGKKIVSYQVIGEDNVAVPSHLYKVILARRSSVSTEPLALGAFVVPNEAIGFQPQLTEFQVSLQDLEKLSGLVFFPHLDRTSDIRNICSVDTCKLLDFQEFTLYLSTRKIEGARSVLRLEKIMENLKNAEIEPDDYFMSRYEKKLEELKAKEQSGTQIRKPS

How the values were obtained:
Experiment in all cases: log2 fold change, soluble protein after heating vs DMSO (PISA); higher = thermal stabilisation; K562 cells, 10 uM, 30 min; active = over 0.2 and 3.5 SD of the protein, either way, in both replicates (recomputed)
[1] = compound: CC[C@@H]1C(=O)N(C)c2cnc(Nc3ccc(C(=O)NC4CCN(C)CC4)cc3OC)nc2N1C1CCCC1
Outline: (§1)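 K562 cells at 2×10^6 cells/mL were given 10 μM compound for 30 min. Aliquots then went through 3 min of heating across 48°C-58°C, were pooled, and were extracted in PBS with 0.5% NP-40 at 4°C, and the supernatant after 21,000xg for 90 min was quantified by TMTpro 16plex LC-MS/MS with channel sums equalised. Thermal stability relative to control samples, from duplicates, is given as log2 fold change.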

volasertib = compound: CC[C@@H]1C(=O)N(C)c2cnc(Nc3ccc(C(=O)N[C@H]4CC[C@H](N5CCN(CC6CC6)CC5)CC4)cc3OC)nc2N1C(C)C [volasertib]
Outline: as §1

[2] = compound: CC[C@H](C)N1C=C(C2=C(C=C(C=C21)C3=CN=C(C=C3)N4CCNCC4)C(=O)NCC5=C(C=C(NC5=O)C)C)C
Outline: as §1

epoxomicin = compound: CC[C@H](C)[C@@H](C(=O)N[C@@H]([C@@H](C)O)C(=O)N[C@@H](CC(C)C)C(=O)[C@]1(CO1)C)NC(=O)[C@H]([C@@H](C)CC)N(C)C(=O)C [epoxomicin]
Outline: as §1

[3] = compound: CCn1cc(-c2ccnc3[nH]c(-c4cccc(CN(C)C)c4)cc23)c(-c2ccc(NC(=O)N(C)C)cc2)n1
Outline: as §1

[4] = compound: CN(C)CC(=O)Nc1ccc2[nH]c(=O)c3ccccc3c2c1
Outline: as §1

[5] = compound: CN1C2=C(C3=C1C(=O)N(N=C3)CC4=CC(=CC=C4)N)SC(=C2)S(=O)C
Outline: as §1

[6] = compound: CN1CCC(CNc2ccc3ncc(-c4cccc(OC(F)(F)F)c4)n3n2)CC1
Outline: as §1

saracatinib = compound: CN1CCN(CCOc2cc(OC3CCOCC3)c3c(Nc4c(Cl)ccc5c4OCO5)ncnc3c2)CC1 [saracatinib]
Outline: as §1

sotrastaurin = compound: CN1CCN(c2nc(C3=C(c4c[nH]c5ccccc45)C(=O)NC3=O)c3ccccc3n2)CC1 [sotrastaurin]
Outline: as §1

Tubastatin A = compound: CN1CCc2c(c3ccccc3n2Cc2ccc(C(=O)NO)cc2)C1 [Tubastatin A]
Outline: as §1

[7] = compound: CNC(=O)C1=CC=CC=C1NC2=NC(=NC=C2Cl)NC3=C(C=C(C=C3)N4CCOCC4)OC
Outline: as §1

defactinib = compound: CNC(=O)c1ccc(Nc2ncc(C(F)(F)F)c(NCc3nccnc3N(C)S(C)(=O)=O)n2)cc1 [defactinib]
Outline: as §1

rucaparib = compound: CNCc1ccc(-c2[nH]c3cc(F)cc4c3c2CCNC4=O)cc1 [rucaparib]
Outline: as §1

[8] = compound: CNc1nc(-c2ccc3c(N)n[nH]c3c2)cc(N2C[C@@H](C(=O)NC3CCCCC3)CC[C@H]2C)n1
Outline: as §1

encorafenib = compound: COC(=O)N[C@@H](C)CNc1nccc(-c2cn(C(C)C)nc2-c2cc(Cl)cc(NS(C)(=O)=O)c2F)n1 [encorafenib]
Outline: as §1

[9] = compound: COC(=O)[C@H](CCSC)NC(=O)C1=C(C=C(C=C1)NC[C@H](CS)N)C2=CC=CC=C2
Outline: as §1

rosiglitazone = compound: CN(CCOC1=CC=C(C=C1)C[C@H]2C(=O)NC(=O)S2)C3=CC=CC=N3 (racemic) [rosiglitazone]
Outline: as §1

alvocidib = compound: CN1CC[C@H](c2c(O)cc(O)c3c(=O)cc(-c4ccccc4Cl)oc23)[C@H](O)C1 [alvocidib]
Outline: as §1

[10] = compound: CCn1c(C(=O)N(C2CC2)C2CC2)cc2c3c(ncn3C)c(Nc3cc(C)n(C)n3)nc21
Outline: as §1

Measured: log2 fold change

EXOC8 (UniProt Q8IYI6)
inactive: [1] -0.212 | [2] 0.045 | epoxomicin -0.004 | [3] 0.003 | [4] 0.073 | [5] 0.009 | saracatinib -0.015 | sotrastaurin -0.196 | Tubastatin A -0.012 | [7] 0.056 | defactinib -0.069 | rucaparib 0.016 | [8] 0.112 | encorafenib 0.094 | [9] -0.047
active: volasertib -0.367 | [6] -0.295

ERLIN1 (UniProt O75477)
inactive: [1] -0.01 | volasertib -0.025 | [2] 0.07 | epoxomicin 0.018 | [3] 0.057 | [4] 0.003 | [5] 0.095 | [6] 0.116 | saracatinib 0 | sotrastaurin -0.072 | Tubastatin A 0.029 | [7] -0.06 | defactinib 0.028 | rucaparib 0.072 | [8] -0.004 | encorafenib 0.105 | [9] -0.024

EVC2 (UniProt Q86UK5)
inactive: [1] -0.133 | volasertib -0.003 | [2] 0.078 | epoxomicin 0.097 | [3] -0.037 | [4] -0.087 | [5] 0.034 | [6] -0.293 | saracatinib -0.151 | sotrastaurin 0.067 | Tubastatin A -0.033 | [7] -0.035 | defactinib -0.065 | rucaparib 0.065 | [8] 0.035 | encorafenib 0.002 | [9] 0.073

EPHA6 (UniProt Q9UF33)
inactive: [1] 0.165 | volasertib 0.027 | [2] -0.271 | epoxomicin -0.444 | [4] -0.369 | rosiglitazone -0.096 | [5] -0.058 | saracatinib 0.03 | sotrastaurin 0.364 | alvocidib 0.029 | Tubastatin A -0.107 | defactinib 0.106 | rucaparib -0.046 | [8] -0.071 | encorafenib -0.174 | [9] 0.123

EVPL (UniProt Q92817)
inactive: [1] 0.462 | [2] -0.374 | [3] -0.159 | [6] -0.17 | sotrastaurin 0.157 | rucaparib 0.009 | encorafenib -0.069

ESPL1 (UniProt Q14674)
inactive: volasertib -0.154 | [2] 0.059 | epoxomicin -0.119 | [10] -0.075 | [3] 0.064 | [4] -0.113 | rosiglitazone -0.048 | [6] -0.158 | sotrastaurin 0.046 | alvocidib 0.134 | [7] -0.025 | defactinib 0.079 | [9] -0.044

ERCC3 (UniProt P19447)
inactive: volasertib -0.137 | [2] 0.058 | epoxomicin -0.055 | [10] -0.116 | [3] 0.018 | [4] 0.069 | rosiglitazone -0.019 | [5] 0.19 | [6] -0.065 | saracatinib -0.117 | sotrastaurin -0.098 | alvocidib -0.001 | Tubastatin A -0.06 | [7] 0.029 | defactinib -0.013 | [8] 0.04 | [9] -0.072

FAM118B (UniProt Q9BPY3)
inactive: [1] -0.087 | [2] 0.035 | epoxomicin 0.036 | [3] -0.067 | [4] 0.11 | sotrastaurin -0.02 | Tubastatin A 0.019 | [7] 0.088 | defactinib -0.113 | rucaparib 0.041 | encorafenib 0.029 | [9] -0.037
active: volasertib -0.445 | [6] -0.373

FAM126B (UniProt Q8IXS8)
inactive: volasertib 0.004 | [2] -0.285 | [3] -0.081 | [5] -0.185 | [6] 0.316 | saracatinib 0.029 | [8] 0.086

FAM122B isoform 2 (UniProt Q7Z309)
inactive: [1] -0.102 | alvocidib 0.01 | rucaparib 0.081 | encorafenib -0.023

EXOG (UniProt Q9Y2C4)
inactive: [1] -0.035 | volasertib 0.018 | [3] 0.018 | [4] -0.041 | [5] 0.01 | [6] 0.147 | saracatinib 0.006 | alvocidib 0.057 | Tubastatin A -0.397 | defactinib 0.057 | rucaparib 0.078 | [8] 0.008 | encorafenib 0.09 | [9] -0.06
